The text below walks through data of patent US20210340562.

For this data set, the target named is T1, R2Bm protein (WT) (UniProt V9H052).
T1 sequence (looked up, limits assumed): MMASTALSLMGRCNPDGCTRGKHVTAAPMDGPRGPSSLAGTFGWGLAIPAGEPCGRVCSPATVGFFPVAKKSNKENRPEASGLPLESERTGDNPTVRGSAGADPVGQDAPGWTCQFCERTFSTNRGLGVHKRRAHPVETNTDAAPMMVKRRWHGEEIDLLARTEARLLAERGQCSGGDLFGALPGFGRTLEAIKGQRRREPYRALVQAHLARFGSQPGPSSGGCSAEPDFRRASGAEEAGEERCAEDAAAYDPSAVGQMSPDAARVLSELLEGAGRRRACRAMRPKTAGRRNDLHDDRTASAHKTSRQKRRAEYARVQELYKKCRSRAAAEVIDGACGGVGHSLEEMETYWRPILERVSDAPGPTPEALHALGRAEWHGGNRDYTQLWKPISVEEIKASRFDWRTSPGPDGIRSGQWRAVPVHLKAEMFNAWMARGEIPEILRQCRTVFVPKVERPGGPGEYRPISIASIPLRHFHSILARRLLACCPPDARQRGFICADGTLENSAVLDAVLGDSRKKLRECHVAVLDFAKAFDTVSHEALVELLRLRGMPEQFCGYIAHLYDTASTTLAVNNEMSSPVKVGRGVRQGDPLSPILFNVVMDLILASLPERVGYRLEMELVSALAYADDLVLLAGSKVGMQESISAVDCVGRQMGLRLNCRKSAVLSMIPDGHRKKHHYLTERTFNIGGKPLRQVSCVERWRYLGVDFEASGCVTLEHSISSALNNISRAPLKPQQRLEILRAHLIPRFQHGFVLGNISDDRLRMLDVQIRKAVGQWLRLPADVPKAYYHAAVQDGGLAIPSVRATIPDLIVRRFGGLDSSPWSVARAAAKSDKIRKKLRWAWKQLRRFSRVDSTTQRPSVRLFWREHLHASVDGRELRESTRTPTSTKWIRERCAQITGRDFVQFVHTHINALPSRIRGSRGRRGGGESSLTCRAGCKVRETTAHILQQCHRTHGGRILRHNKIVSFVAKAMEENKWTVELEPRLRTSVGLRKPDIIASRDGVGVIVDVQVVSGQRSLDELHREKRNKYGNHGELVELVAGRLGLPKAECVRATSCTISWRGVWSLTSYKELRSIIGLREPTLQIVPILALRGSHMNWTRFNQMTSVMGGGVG
As to the kind of experiment: EMSA. The conditions noted are these: no RNA, purified recombinant protein, protein details: Talon-resin purified, expressed in BL21 E. coli. Background: In EMSA bound probe runs differently from free probe, usually more slowly.

For at least one entry, the source does not settle the construct or the ends of the probe. A weaker result is weaker than the reference pair of the same experiment. Protein sequences can lack the tags named with them.

For “CCTCGAGGGATCCGTCCTAGCAAGCCGCTGCTACCGGAAGCTTCTGGACC (double strand) [nonspecific linear DNA]”, the binding result (similar to junction individually, bound only after junction in competition, label: 5' 32P on b-strand) is listed as “binds more weakly”. Turning to “CCTCGAGGGATCCGTCCTAGCAAGCCGCTGCTACCGGAAGCTTCTGGACC / GCTCGAGTCTAGACTGCAGTTGAGAGCTTGCTAGGACGGATCCCTCGAGG / GGTCCAGAAGCTTCCGGTAGCAGCGAGAGCGGTGGTTGAATTCCTCGACG / CGTCGAGGAATTCAACCACCGCTCTTCTCAACTGCAGTCTAGACTCGAGC [nonspecific 4-way junction]”, the binding result (preferred over nonspecific linear DNA in competition (more than two-fold), dIdC competitor, binding greatly inhibited by 5' PBM RNA, label: 5' 32P, folded or branched DNA) was “binds”.
